Measurements from patent US20180073039A1 (SINAI HEALTH SYSTEM, published 2018).
These are yes or no findings as the source states them, for the method shown. Some binding calls cover weakened binding; strength is not graded here.

Protein sequences, listed by entry. Tags and fused reporters are not part of them. Lines headed by an entry give the natural chain unless they say otherwise; changes in a name come on top.
UniProt P51784: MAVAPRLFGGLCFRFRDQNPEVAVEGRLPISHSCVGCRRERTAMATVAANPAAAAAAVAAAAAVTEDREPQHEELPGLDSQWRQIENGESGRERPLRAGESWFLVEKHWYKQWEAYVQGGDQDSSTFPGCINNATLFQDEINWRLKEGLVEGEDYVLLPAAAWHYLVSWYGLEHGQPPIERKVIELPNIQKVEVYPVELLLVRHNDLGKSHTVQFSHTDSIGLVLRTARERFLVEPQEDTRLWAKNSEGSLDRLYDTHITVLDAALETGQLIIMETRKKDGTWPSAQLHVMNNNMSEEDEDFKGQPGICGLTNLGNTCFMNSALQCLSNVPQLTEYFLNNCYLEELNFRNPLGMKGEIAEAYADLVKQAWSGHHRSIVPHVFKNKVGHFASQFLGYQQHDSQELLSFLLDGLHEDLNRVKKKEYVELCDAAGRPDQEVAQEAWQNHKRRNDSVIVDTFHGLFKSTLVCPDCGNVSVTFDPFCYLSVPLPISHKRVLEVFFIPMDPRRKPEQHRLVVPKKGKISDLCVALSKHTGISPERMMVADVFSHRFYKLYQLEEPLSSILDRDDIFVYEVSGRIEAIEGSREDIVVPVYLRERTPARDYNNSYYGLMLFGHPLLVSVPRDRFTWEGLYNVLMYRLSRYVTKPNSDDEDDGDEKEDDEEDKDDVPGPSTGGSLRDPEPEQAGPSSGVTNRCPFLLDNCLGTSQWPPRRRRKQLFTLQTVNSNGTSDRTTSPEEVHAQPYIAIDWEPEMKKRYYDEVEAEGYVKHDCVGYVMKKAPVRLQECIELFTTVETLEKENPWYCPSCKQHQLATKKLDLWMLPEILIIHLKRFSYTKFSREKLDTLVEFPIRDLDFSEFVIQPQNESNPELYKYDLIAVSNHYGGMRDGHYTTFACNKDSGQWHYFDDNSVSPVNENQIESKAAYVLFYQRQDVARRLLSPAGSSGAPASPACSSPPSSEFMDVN

Columns and labels:
[1] = target: T1, DCAF10 (DDB1- and CUL4-associated factor 10) (human) (UniProt Q5QP82); assay: Flag immunoprecipitation from HEK293 cell extracts, immunoblot with DCAF10 antibody
T1 sequence: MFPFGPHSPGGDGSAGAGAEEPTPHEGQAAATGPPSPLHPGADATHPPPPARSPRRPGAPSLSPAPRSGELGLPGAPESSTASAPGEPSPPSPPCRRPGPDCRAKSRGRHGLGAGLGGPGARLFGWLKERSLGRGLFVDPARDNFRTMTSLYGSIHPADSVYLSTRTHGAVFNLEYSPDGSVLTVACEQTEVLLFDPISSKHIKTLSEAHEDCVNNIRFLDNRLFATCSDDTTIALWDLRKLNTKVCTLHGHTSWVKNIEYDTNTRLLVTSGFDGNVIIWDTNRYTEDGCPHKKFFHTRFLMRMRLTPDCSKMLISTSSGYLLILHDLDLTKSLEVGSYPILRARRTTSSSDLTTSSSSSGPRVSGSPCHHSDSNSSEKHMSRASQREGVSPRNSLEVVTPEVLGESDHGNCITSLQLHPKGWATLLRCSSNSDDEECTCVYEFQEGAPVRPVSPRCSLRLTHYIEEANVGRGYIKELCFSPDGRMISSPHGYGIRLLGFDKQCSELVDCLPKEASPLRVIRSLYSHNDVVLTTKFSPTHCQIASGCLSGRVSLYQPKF

[2] = target: T1, DCAF10 (DDB1- and CUL4-associated factor 10) (human); assay: Flag-USP11 immunoprecipitation from 293 Flp-IN/T-Rex extracts, immunoblot
[3] = target: T2, PALB2 (partner and localizer of BRCA2) (human) (UniProt Q86YC2); assay: USP11 immunoprecipitation from 293T extracts with or without camptothecin, immunoblot
T2 sequence: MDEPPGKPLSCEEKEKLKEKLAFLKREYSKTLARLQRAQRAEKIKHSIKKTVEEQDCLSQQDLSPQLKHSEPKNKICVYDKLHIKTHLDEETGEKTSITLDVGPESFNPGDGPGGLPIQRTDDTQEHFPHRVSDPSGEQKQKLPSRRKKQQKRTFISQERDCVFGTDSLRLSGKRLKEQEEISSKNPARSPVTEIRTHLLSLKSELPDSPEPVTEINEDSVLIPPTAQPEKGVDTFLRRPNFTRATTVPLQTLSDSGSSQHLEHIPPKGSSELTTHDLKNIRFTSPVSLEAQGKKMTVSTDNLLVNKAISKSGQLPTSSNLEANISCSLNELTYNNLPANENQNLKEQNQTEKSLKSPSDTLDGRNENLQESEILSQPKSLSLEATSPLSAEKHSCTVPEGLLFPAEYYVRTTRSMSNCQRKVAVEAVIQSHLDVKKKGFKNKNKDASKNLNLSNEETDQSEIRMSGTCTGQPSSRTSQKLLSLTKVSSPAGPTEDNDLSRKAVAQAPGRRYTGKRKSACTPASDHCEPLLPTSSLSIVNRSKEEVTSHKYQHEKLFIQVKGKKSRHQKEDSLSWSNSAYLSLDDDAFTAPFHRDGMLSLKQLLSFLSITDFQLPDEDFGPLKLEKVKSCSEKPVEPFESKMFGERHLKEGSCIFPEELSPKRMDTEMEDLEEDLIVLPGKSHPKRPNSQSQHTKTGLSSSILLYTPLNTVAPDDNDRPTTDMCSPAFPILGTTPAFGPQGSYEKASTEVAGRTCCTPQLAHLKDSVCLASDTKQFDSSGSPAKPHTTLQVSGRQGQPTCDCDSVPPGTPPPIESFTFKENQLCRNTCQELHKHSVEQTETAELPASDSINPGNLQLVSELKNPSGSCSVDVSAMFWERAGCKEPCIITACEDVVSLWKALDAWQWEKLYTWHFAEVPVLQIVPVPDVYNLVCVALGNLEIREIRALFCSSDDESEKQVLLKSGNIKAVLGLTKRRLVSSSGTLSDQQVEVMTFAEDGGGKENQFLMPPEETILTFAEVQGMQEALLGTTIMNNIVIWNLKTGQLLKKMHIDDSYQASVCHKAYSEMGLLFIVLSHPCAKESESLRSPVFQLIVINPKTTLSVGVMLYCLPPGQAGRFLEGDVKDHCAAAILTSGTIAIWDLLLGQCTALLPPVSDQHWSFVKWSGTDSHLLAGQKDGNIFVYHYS

[4] = target: T2, PALB2 (partner and localizer of BRCA2) (human); assay: PALB2 immunoprecipitation from 293T extracts synchronized in G1 or S, immunoblot

| Substance | binding [1] | binding [2] | binding [3] | binding [4] |
| --- | --- | --- | --- | --- |
| Flag-tagged USP11 (from UniProt P51784 1-963) (enzyme) | binds | binds | – | – |
| USP11 (ubiquitin carboxyl-terminal hydrolase 11) (from UniProt P51784 1-963) (enzyme) | – | – | binds | binds |
